{"source": "PubChem BioAssay AID652243 – Drosophila RNAi Screening Center – 2013", "test": "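Fly genes required for human androgen receptor driven transcription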 (primary screen)", "system": "Drosophila S2R+ cells", "knock-down reagent": "long dsRNA against Drosophila genes", "time to read-out": "72 h (48 h, then 24 h hormone)", "challenge": "synthetic androgen R1881 at 10 nM for 24 h", "measurement": "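Per-well raw luminescence of the androgen-driven firefly reporter and of the Renilla control, two replicates each, without normalisation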", "scale": "firefly reporter light: higher = more light from androgen-responsive reporter; Renilla control light: higher = more constitutive control signal (cell number, transfection)", "active means": "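Across duplicate plates, a knock-down whose log firefly/Renilla ratio shifted a set fold down or up from the GFP/LacZ control mean was a hit; the downward cut appears as both 1.5 and 3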", "meaning of the calls": "active = hit: reporter lowered or raised; inactive = no hit", "note": "The deposit covers about 24,000 reagents; below is a random part of those that have a named target and a result. Of all reagents, 246 (1%) are marked active. 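Plates not normalised; calls are printed but the firefly/Renilla ratio behind them is not deposited; fold cut for lowering reported inconsistently.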 Raw values are not corrected between plates. Names joined by + are all predicted targets of the reagent. Reagent sequences are not shown. Not stated in the record: the amount of reagent."}
{"target gene": "CG13895 (GeneID 38087)", "dsRNA": "DRSC08365", "firefly reporter light, replicate 1": 81751, "firefly reporter light, replicate 2": 1.01e5, "Renilla control light, replicate 1": 1.28e6, "Renilla control light, replicate 2": 1.24e6, "Outcome": "inactive"}
{"target gene": "CG34296 (GeneID 5740662)", "dsRNA": "DRSC38809", "firefly reporter light, replicate 1": 1.23e6, "firefly reporter light, replicate 2": 9.77e5, "Renilla control light, replicate 1": 2.24e6, "Renilla control light, replicate 2": 1.74e6, "Outcome": "inactive"}
{"target gene": "CR11023 (GeneID 33155)", "dsRNA": "DRSC00302", "firefly reporter light, replicate 1": 99060, "firefly reporter light, replicate 2": 69310, "Renilla control light, replicate 1": 5.44e5, "Renilla control light, replicate 2": 5.79e5, "Outcome": "inactive"}
{"target gene": "CR11023 (GeneID 33155)", "dsRNA": "DRSC28266", "firefly reporter light, replicate 1": 3.65e5, "firefly reporter light, replicate 2": 8.13e5, "Renilla control light, replicate 1": 1.17e6, "Renilla control light, replicate 2": 2.10e6, "Outcome": "inactive"}
{"target gene": "ND-51L1 (GeneID 36998)", "dsRNA": "DRSC06072", "firefly reporter light, replicate 1": 77244, "firefly reporter light, replicate 2": 75125, "Renilla control light, replicate 1": 1.27e6, "Renilla control light, replicate 2": 1.27e6, "Outcome": "inactive"}
{"target gene": "CG14419 (GeneID 31276)", "dsRNA": "DRSC17916", "firefly reporter light, replicate 1": 4.29e5, "firefly reporter light, replicate 2": 4.31e5, "Renilla control light, replicate 1": 4.53e6, "Renilla control light, replicate 2": 4.06e6, "Outcome": "inactive"}
{"target gene": "CG14419 (GeneID 31276)", "dsRNA": "DRSC27046", "firefly reporter light, replicate 1": 6.60e5, "firefly reporter light, replicate 2": 4.77e5, "Renilla control light, replicate 1": 7.12e5, "Renilla control light, replicate 2": 6.12e5, "Outcome": "inactive"}
{"target gene": "CG30002 (GeneID 246384)", "dsRNA": "DRSC05182", "firefly reporter light, replicate 1": 3.69e5, "firefly reporter light, replicate 2": 3.89e5, "Renilla control light, replicate 1": 4.67e5, "Renilla control light, replicate 2": 4.51e5, "Outcome": "inactive"}
{"target gene": "CG30002 (GeneID 246384)", "dsRNA": "DRSC24738", "firefly reporter light, replicate 1": 4.72e5, "firefly reporter light, replicate 2": 5.33e5, "Renilla control light, replicate 1": 5.19e5, "Renilla control light, replicate 2": 6.51e5, "Outcome": "inactive"}
{"target gene": "CG9951 (GeneID 39888)", "dsRNA": "DRSC11105", "firefly reporter light, replicate 1": 29888, "firefly reporter light, replicate 2": 27571, "Renilla control light, replicate 1": 4.71e5, "Renilla control light, replicate 2": 2.86e5, "Outcome": "inactive"}
{"target gene": "SmD3 (GeneID 36306)", "dsRNA": "DRSC07553", "firefly reporter light, replicate 1": 4.67e5, "firefly reporter light, replicate 2": 2.77e5, "Renilla control light, replicate 1": 2.02e6, "Renilla control light, replicate 2": 1.84e6, "Outcome": "inactive"}
{"target gene": "SmD3 (GeneID 36306)", "dsRNA": "DRSC29356", "firefly reporter light, replicate 1": 3.65e5, "firefly reporter light, replicate 2": 4.90e5, "Renilla control light, replicate 1": 1.17e6, "Renilla control light, replicate 2": 1.17e6, "Outcome": "inactive"}
{"target gene": "CG7551 (GeneID 39280)", "dsRNA": "DRSC10876", "firefly reporter light, replicate 1": 2.08e5, "firefly reporter light, replicate 2": 1.75e5, "Renilla control light, replicate 1": 2.49e6, "Renilla control light, replicate 2": 2.47e6, "Outcome": "inactive"}
{"target gene": "CG7551 (GeneID 39280)", "dsRNA": "DRSC39274", "Outcome": "inactive"}
{"target gene": "RhoL (GeneID 41136)", "dsRNA": "DRSC16824", "firefly reporter light, replicate 1": 67594, "firefly reporter light, replicate 2": 69532, "Renilla control light, replicate 1": 5.26e5, "Renilla control light, replicate 2": 3.84e5, "Outcome": "inactive"}
{"target gene": "RhoL (GeneID 41136)", "dsRNA": "DRSC23664", "firefly reporter light, replicate 1": 9.86e5, "firefly reporter light, replicate 2": 3.07e5, "Renilla control light, replicate 1": 1.93e6, "Renilla control light, replicate 2": 5.13e5, "Outcome": "inactive"}
{"target gene": "RhoL (GeneID 41136)", "dsRNA": "DRSC38970", "firefly reporter light, replicate 1": 8.05e5, "firefly reporter light, replicate 2": 6.57e5, "Renilla control light, replicate 1": 1.44e6, "Renilla control light, replicate 2": 1.23e6, "Outcome": "inactive"}
{"target gene": "CG15879 (GeneID 38274)", "dsRNA": "DRSC08487", "firefly reporter light, replicate 1": 32839, "firefly reporter light, replicate 2": 42094, "Renilla control light, replicate 1": 5.78e5, "Renilla control light, replicate 2": 5.90e5, "Outcome": "inactive"}
{"target gene": "CG15879 (GeneID 38274)", "dsRNA": "DRSC27002", "firefly reporter light, replicate 1": 4.49e5, "firefly reporter light, replicate 2": 3.95e5, "Renilla control light, replicate 1": 7.98e5, "Renilla control light, replicate 2": 6.54e5, "Outcome": "inactive"}
{"target gene": "Alas (GeneID 37815)", "dsRNA": "DRSC04044", "firefly reporter light, replicate 1": 8.00e5, "firefly reporter light, replicate 2": 5.90e5, "Renilla control light, replicate 1": 1.51e6, "Renilla control light, replicate 2": 1.17e6, "Outcome": "inactive"}
{"target gene": "Rbbp5 + CG6434 (retired record)", "dsRNA": "DRSC10635", "firefly reporter light, replicate 1": 2.95e5, "firefly reporter light, replicate 2": 2.54e5, "Renilla control light, replicate 1": 2.88e6, "Renilla control light, replicate 2": 2.37e6, "Outcome": "inactive"}

Taken from above:
Under “firefly reporter light, replicate 2”, CG30002 (GeneID 246384) [DRSC24738] shows 5.33e5
Entry of CG13895 (GeneID 38087) [DRSC08365] in “Renilla control light, replicate 2”: 1.24e6
Alas (GeneID 37815) [DRSC04044], Renilla control light, replicate 2 = 1.17e6
